Results deposited as PubChem BioAssay AID1159578 (Peter MacCallum Cancer Centre, 2015)
Here is an unselected part of about 18,000 deposited reagents. About 1,030 of them (5.7%) were called active. 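Inactive calls also include pools with fewer than 3300 nuclei, whose migration was not assessed.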 Raw values vary from plate to plate and are shown uncorrected. A number with no mark means an inactive call. Not all columns of the deposit are shown.

Test: 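Knock-downs that alter how fast lymphatic endothelial cells migrate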 (primary screen)
Cells: human lymphatic endothelial cells
Knock-down reagent: siRNA pool against human genes, 40 nM
Duration: 48 h after transfection
Detection: 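Cells stained with dye and imaged after a scratch; covered wound area and nuclei counted, duplicates averaged, migration set against mock wells and turned into a robust z-score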
Scale: migration robust z-score: higher = faster migration into the scratch; nuclei per well: higher = more cells in the well
Hit rule: 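Migration changed when robust z exceeds 2 or falls below -2 and mean nuclei number is at least 3300; otherwise not called changed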
Meaning of the calls: active = migration changed; inactive = no migration change, or too few cells

After knock-down of CD247 (GeneID 919), the screen gave migration robust z-score 0; nuclei per well, duplicate mean 5061.
With knock-down of ZNF764 (GeneID 92595) the results were migration robust z-score 0.9; nuclei per well, duplicate mean 4923.
Knock-down of EXD2 (GeneID 55218) gave: migration robust z-score -0.57; nuclei per well, duplicate mean 6346.
Silencing of C4A (GeneID 720) gave: migration robust z-score 0.9; nuclei per well, duplicate mean 5402.
With knock-down of MACF1 (GeneID 23499), the record shows migration robust z-score -0.98; nuclei per well, duplicate mean 4616.
H4C7 (GeneID 8369) gave migration robust z-score 0.68; nuclei per well, duplicate mean 5420.
ZBED4 (GeneID 9889) scored migration robust z-score -1.22; nuclei per well, duplicate mean 5913.
After knock-down of TMOD2 (GeneID 29767), the record shows migration robust z-score -0.43; nuclei per well, duplicate mean 5777.
COX6A1 (GeneID 1337) gave migration robust z-score -0.58; nuclei per well, duplicate mean 6736.
C4orf51 (GeneID 646603) scored migration robust z-score 1.14; nuclei per well, duplicate mean 5354.
SLC14A2 (GeneID 8170) showed migration robust z-score 1.82; nuclei per well, duplicate mean 6136.
With knock-down of KBTBD4 (GeneID 55709), the screen gave migration robust z-score -0.36; nuclei per well, duplicate mean 5366.
Depletion of FKBP8 (GeneID 23770) gave: migration robust z-score 0.39; nuclei per well, duplicate mean 4325.
SEPTIN1 (GeneID 1731) gave migration robust z-score -0.03; nuclei per well, duplicate mean 5000.
With knock-down of GPR12 (GeneID 2835) the results were migration robust z-score -0.8; nuclei per well, duplicate mean 4540.
For ARPC5L (GeneID 81873), the entry reads migration robust z-score -1.03; nuclei per well, duplicate mean 5824.
For DDX55 (GeneID 57696) the deposit lists migration robust z-score 1.53; nuclei per well, duplicate mean 5602.
Depletion of GABRA2 (GeneID 2555) came out at: migration robust z-score -0.32; nuclei per well, duplicate mean 5815.
For PARP1 (GeneID 142), the entry reads migration robust z-score 0.73; nuclei per well, duplicate mean 5239.
LIMA1 (GeneID 51474) scored migration robust z-score 2.59 (active); nuclei per well, duplicate mean 6289.
For RPS20 (GeneID 6224), the entry reads migration robust z-score -1.79; nuclei per well, duplicate mean 3751.
